{"sequences": {"note": "Sequences of proteins named here, by UniProt entry; tags and fusion partners are left off.", "UniProt Q0JBA9, entry or part of it": "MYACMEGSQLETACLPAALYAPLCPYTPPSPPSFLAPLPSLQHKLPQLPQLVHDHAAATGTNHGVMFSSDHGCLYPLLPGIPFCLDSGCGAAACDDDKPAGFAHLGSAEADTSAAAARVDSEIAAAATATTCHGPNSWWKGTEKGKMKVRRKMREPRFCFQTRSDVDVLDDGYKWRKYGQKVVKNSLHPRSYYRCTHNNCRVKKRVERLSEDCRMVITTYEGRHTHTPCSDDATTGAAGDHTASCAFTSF"}, "source": "paper PMC7819943", "about": "“Rice protein-binding microarrays: a tool to detect cis-acting elements near promoter regions in rice”", "note": "The other results are listed elsewhere or left out.", "data": [{"biological_target": "OsWRKY34 (Oryza sativa, UniProt Q0JBA9 1-250)", "assay": "protein-binding microarray (RPBM); PBS, 2% BSA, 51.3 ng/ul salmon testes DNA, 50 uM zinc acetate, 200 nM TF, 25 C, 1 h; high values mean tight binding", "conditions": "protein: recombinant; tags: N-terminal polyhistidine and DsRed monomer fusion (pET32a); label: CyDye5-dUTP incorporated in the synthesized complementary strand; 3' TTTTT single-stranded linker to array surface; dsDNA, one strand shown", "method_in_brief": "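For the binding signal, per-feature fluorescence intensity was read in arbitrary units on an Axon 4000B scanner. Before scanning, a 2% BSA-blocked custom Agilent array made double-stranded with Cy5-dUTP was washed after 1 h at 25 °C with 200 nM protein and 50 µM zinc acetate. The proteins were Ni–NTA-purified transcription factors with N-terminal polyhistidine and DsRed fusions, expressed in E. coli BL21-CodonPlus.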", "values": [{"sequence": "CTCCTATAAAATCCCGACGAAACCACCGCCGCGCAACCTCCGGAGTCACCTAGTGCAG", "binding signal": "8410 fluorescence intensity (a.u.)"}, {"sequence": "ACACACCCGCGCCGTTCCTGCGCGCCTTGTTCGCGTCCATCGGAGTCACCTAGTGCAG", "binding signal": "9180 fluorescence intensity (a.u.)"}, {"sequence": "CGACTAGTTACTGCGGCTCTTTCAACCTGTCTCACTGTATCGGAGTCACCTAGTGCAG", "binding signal": "8180 fluorescence intensity (a.u.)"}, {"sequence": "ATTTTGACCTTGGATTGTTATCGTTACAACTGGATCCTAGCGGAGTCACCTAGTGCAG", "binding signal": "8790 fluorescence intensity (a.u.)"}, {"sequence": "ACCACGCCAAGCCGACGCCGTGCCGTGCACCTCTTTCCTCCGGAGTCACCTAGTGCAG", "binding signal": "11400 fluorescence intensity (a.u.)"}, {"sequence": "ACGTGTTCACTTTATTGCCAACATACATGCTACCCAATTTCGGAGTCACCTAGTGCAG", "binding signal": "9060 fluorescence intensity (a.u.)"}, {"sequence": "GACTTGGGGTGGGGTGGAGCGGGAGATCCATCCAAGATAGCGGAGTCACCTAGTGCAG", "binding signal": "12600 fluorescence intensity (a.u.)"}, {"sequence": "TTGGGTTCTTGATATAACTGGTGGAAATGGCGAGGTAATTCGGAGTCACCTAGTGCAG", "binding signal": "11000 fluorescence intensity (a.u.)"}, {"sequence": "ATGTATTGGTGTTATGCCTTCTGTTTATTTTATTTGCTCCCGGAGTCACCTAGTGCAG", "binding signal": "8730 fluorescence intensity (a.u.)"}, {"sequence": "ATTTGTTTCTAAATATTTGACACCGTTGACTTTTTAGCACCGGAGTCACCTAGTGCAG", "binding signal": "24100 fluorescence intensity (a.u.)"}, {"sequence": "TCCCATCCACCTCCATCGCCGCCGCCGCCGCGTATGCGCCCGGAGTCACCTAGTGCAG", "binding signal": "8650 fluorescence intensity (a.u.)"}, {"sequence": "AGCTGGCTAAATCATATTTCCAAAGTCTCTCTCGTCTCTCCGGAGTCACCTAGTGCAG", "binding signal": "8510 fluorescence intensity (a.u.)"}, {"sequence": "TCTTGCTCTCCACAAACTTTCCATCACCACCTTTCGGGCGCGGAGTCACCTAGTGCAG", "binding signal": "8180 fluorescence intensity (a.u.)"}, {"sequence": "GTGGGAGGGGACGTGGGTGGGCAAAGTCCACAAGAAAGATCGGAGTCACCTAGTGCAG", "binding signal": "8240 fluorescence intensity (a.u.)"}, {"sequence": "CAACCCACACACCACCACACAGATCACAACAGCAAGTTGTCGGAGTCACCTAGTGCAG", "binding signal": "8160 fluorescence intensity (a.u.)"}, {"sequence": "CATCATGCTCACCGGTAACTACCCGATATTACCTCCCTATCGGAGTCACCTAGTGCAG", "binding signal": "10800 fluorescence intensity (a.u.)"}, {"sequence": "ATGCTTGTTTTCTCATCAGGTCATTCATTGAAGACTCACACGGAGTCACCTAGTGCAG", "binding signal": "8280 fluorescence intensity (a.u.)"}, {"sequence": "ATCTCCAATTTATTTTTGCTTCTAGCAAAGTTTTTTTTTTCGGAGTCACCTAGTGCAG", "binding signal": "8750 fluorescence intensity (a.u.)"}, {"sequence": "GGGCATATGCGTGCGTGATAATCGGGGAGGAGCGGTAATACGGAGTCACCTAGTGCAG", "binding signal": "8390 fluorescence intensity (a.u.)"}, {"sequence": "ATCTACCCCTGCGATGTGTCAAATTCCAAGCCAAGGCCCTCGGAGTCACCTAGTGCAG", "binding signal": "8540 fluorescence intensity (a.u.)"}, {"sequence": "CGCTACCTCACCAACACCATATAATCAAATTCTAGTAGTTCGGAGTCACCTAGTGCAG", "binding signal": "8060 fluorescence intensity (a.u.)"}, {"sequence": "CTGCGGCAGTGTTCTTTTTTTTTTTACACGCGTTTTTTTTCGGAGTCACCTAGTGCAG", "binding signal": "10800 fluorescence intensity (a.u.)"}, {"sequence": "GGTACGGTCTTACTTCTATAGTTCTATTCATGTATCTATTCGGAGTCACCTAGTGCAG", "binding signal": "10300 fluorescence intensity (a.u.)"}, {"sequence": "GTTTCGTGGTGGTTGCTGGGCTTTTCGTTGGCGTGGGTGGCGGAGTCACCTAGTGCAG", "binding signal": "11500 fluorescence intensity (a.u.)"}, {"sequence": "CTCCTCTCATCAACAGAATCATCTGACCATCTTTATATCACGGAGTCACCTAGTGCAG", "binding signal": "9190 fluorescence intensity (a.u.)"}, {"sequence": "AGATTTTGGCCGCGCGCTGGATACGGCTAAGCAATTCGATCGGAGTCACCTAGTGCAG", "binding signal": "8230 fluorescence intensity (a.u.)"}, {"sequence": "TAAGTTCCTTTGTTTGGGTGGGGAAATATATCACACCAGACGGAGTCACCTAGTGCAG", "binding signal": "8060 fluorescence intensity (a.u.)"}, {"sequence": "CCTCCATTTTCGGACTCCGGTGCTCTCTCCTCCTTTGCGTCGGAGTCACCTAGTGCAG", "binding signal": "8450 fluorescence intensity (a.u.)"}, {"sequence": "TTACTACTGCATTATCAAGTGTATCTTGCCATGTACTTCCCGGAGTCACCTAGTGCAG", "binding signal": "12100 fluorescence intensity (a.u.)"}, {"sequence": "TCGTCTTCGTCTTTGCCCATGAAAATTCCCTGCCTTGTCCCGGAGTCACCTAGTGCAG", "binding signal": "8770 fluorescence intensity (a.u.)"}, {"sequence": "CGTGTCACGCCGCGCGTTCGCGTGCCTTCCCGTTCGCACCCGGAGTCACCTAGTGCAG", "binding signal": "8580 fluorescence intensity (a.u.)"}, {"sequence": "CTTCCATTCCTCTCCTGGCCAGTACACGGTTGTTTATATTCGGAGTCACCTAGTGCAG", "binding signal": "8640 fluorescence intensity (a.u.)"}, {"sequence": "TCCTTGCTGTATGTGCTATGAACCATGTTTACTTTATTCACGGAGTCACCTAGTGCAG", "binding signal": "9670 fluorescence intensity (a.u.)"}, {"sequence": "TTTTTTCGTTTTACGTGAGTCAATTTACTCTTTATCTTCACGGAGTCACCTAGTGCAG", "binding signal": "8980 fluorescence intensity (a.u.)"}, {"sequence": "ATCCGTGCTACCTCATCATATATTCACCAACATTAGGATACGGAGTCACCTAGTGCAG", "binding signal": "13800 fluorescence intensity (a.u.)"}, {"sequence": "CACCCAACTACCACCACCTCTGTGTTTTCCTGCACTCTCCCGGAGTCACCTAGTGCAG", "binding signal": "8030 fluorescence intensity (a.u.)"}, {"sequence": "AGGATATTGACCCATCATTCTATAATCTTATTTTCGGCATCGGAGTCACCTAGTGCAG", "binding signal": "8360 fluorescence intensity (a.u.)"}, {"sequence": "ATCTATAATTTATAAACCGCTCCCATAACCATCATTTTTTCGGAGTCACCTAGTGCAG", "binding signal": "8600 fluorescence intensity (a.u.)"}, {"sequence": "GCCGCTCCAGCTAGCTCCCGCCGCCGCTCGCTCCCCACGGCGGAGTCACCTAGTGCAG", "binding signal": "8770 fluorescence intensity (a.u.)"}, {"sequence": "ACTTACTATTTATCACTTTGACAGTGACTCTTTTGTATATCGGAGTCACCTAGTGCAG", "binding signal": "9390 fluorescence intensity (a.u.)"}, {"sequence": "AGTCAGTCTCACTCTCTTCCTCCAAATCGTTGGTGCTGCTCGGAGTCACCTAGTGCAG", "binding signal": "8190 fluorescence intensity (a.u.)"}, {"sequence": "ATCAAATATGCACCTAAATTCACAATTTTTTTTGGTTTCCCGGAGTCACCTAGTGCAG", "binding signal": "8960 fluorescence intensity (a.u.)"}]}]}
